This passage reports binding results from article PMC10656961.

These are yes or no findings as the source states them, for the method shown. In cells and extracts the contact can be indirect. Some results given as binding are weak or reduced against the parent protein; the word gives no strength. For some assays here: Where a sequence is shown, tags or fusion partners need not be part of it.

Assay [1] has as its target T1, ubiquitin-specific protease 3 (USP3), endogenous (human (endogenous in the human cell lines of the paper; line not named)) (UniProt Q9Y6I4).
T1 sequence: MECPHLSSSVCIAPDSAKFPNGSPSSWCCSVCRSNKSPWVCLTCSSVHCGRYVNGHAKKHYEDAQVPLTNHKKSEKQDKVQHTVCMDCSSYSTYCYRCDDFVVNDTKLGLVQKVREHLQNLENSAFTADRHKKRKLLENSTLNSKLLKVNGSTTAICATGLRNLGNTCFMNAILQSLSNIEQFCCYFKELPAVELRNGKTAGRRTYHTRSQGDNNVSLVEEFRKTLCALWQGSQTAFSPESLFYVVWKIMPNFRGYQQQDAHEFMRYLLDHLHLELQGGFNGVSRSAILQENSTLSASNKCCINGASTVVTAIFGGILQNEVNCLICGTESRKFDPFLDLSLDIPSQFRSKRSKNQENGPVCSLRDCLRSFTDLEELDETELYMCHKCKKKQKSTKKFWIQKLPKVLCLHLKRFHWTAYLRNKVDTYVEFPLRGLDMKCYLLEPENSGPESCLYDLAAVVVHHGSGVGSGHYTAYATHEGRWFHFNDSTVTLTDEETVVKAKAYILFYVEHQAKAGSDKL
Nature of the assay: co-IP; endogenous proteins; cell lysates (IP lysis buffer) with antibodies against USP3 or WDTC1 at 4 °C overnight, protein A/G beads 1 h, western blot (Pierce Classic Magnetic Co-IP Kit).

The next assay addresses T2, USP3-GST fusion (human) (UniProt Q9Y6I4).
T2 sequence: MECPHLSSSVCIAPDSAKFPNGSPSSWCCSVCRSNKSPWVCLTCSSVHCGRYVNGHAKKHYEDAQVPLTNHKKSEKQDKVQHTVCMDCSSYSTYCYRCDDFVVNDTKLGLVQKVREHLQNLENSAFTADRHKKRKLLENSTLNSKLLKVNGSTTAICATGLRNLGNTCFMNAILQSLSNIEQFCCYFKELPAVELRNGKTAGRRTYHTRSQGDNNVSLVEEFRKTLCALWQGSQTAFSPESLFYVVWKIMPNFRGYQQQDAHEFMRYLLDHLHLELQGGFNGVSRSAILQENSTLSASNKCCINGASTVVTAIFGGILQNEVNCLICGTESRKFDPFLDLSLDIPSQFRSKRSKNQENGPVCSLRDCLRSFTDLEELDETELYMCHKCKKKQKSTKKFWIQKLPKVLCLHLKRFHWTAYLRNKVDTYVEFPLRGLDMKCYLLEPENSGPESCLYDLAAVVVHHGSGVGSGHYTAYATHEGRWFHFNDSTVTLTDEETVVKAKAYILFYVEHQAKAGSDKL
As to the kind of experiment: pull-down; USP3-GST (or control GST) from BL21 held on glutathione sepharose 4B beads, Flag-WDTC1 added, 3 h at 4 °C, rinsed with PBS, western blot. For orientation: In western blotting, separated proteins are transferred to a membrane and probed.

B1: WD40 and tetratricopeptide repeats 1 (WDTC1), endogenous (protein, UniProt Q8N5D0 1-677)
chain: MAKVNITRDLIRRQIKERGALSFERRYHVTDPFIRRLGLEAELQGHSGCVNCLEWNEKGDLLASGSDDQHTIVWDPLHHKKLLSMHTGHTANIFSVKFLPHAGDRILITGAADSKVHVHDLTVKETIHMFGDHTNRVKRIATAPMWPNTFWSAAEDGLIRQYDLRENSKHSEVLIDLTEYCGQLVEAKCLTVNPQDNNCLAVGASGPFVRLYDIRMIHNHRKSMKQSPSAGVHTFCDRQKPLPDGAAQYYVAGHLPVKLPDYNNRLRVLVATYVTFSPNGTELLVNMGGEQVYLFDLTYKQRPYTFLLPRKCHSSGEVQNGKMSTNGVSNGVSNGLHLHSNGFRLPESRGHVSPQVELPPYLERVKQQANEAFACQQWTQAIQLYSKAVQRAPHNAMLYGNRAAAYMKRKWDGDHYDALRDCLKAISLNPCHLKAHFRLARCLFELKYVAEALECLDDFKGKFPEQAHSSACDALGRDITAALFSKNDGEEKKGPGGGAPVRLRSTSRKDSISEDEMVLRERSYDYQFRYCGHCNTTTDIKEANFFGSNAQYIVSGSDDGSFFIWEKETTNLVRVLQGDESIVNCLQPHPSYCFLATSGIDPVVRLWNPRPESEDLTGRVVEDMEGASQANQRRMNADPLEVMLLNMGYRITGLSSGGAGASDDEDSSEGQVQCRPS
For B1, the binding entry in assay [1] was “binds”.

B2: Flag-WDTC1 (protein, UniProt Q8N5D0 1-677)
chain: MAKVNITRDLIRRQIKERGALSFERRYHVTDPFIRRLGLEAELQGHSGCVNCLEWNEKGDLLASGSDDQHTIVWDPLHHKKLLSMHTGHTANIFSVKFLPHAGDRILITGAADSKVHVHDLTVKETIHMFGDHTNRVKRIATAPMWPNTFWSAAEDGLIRQYDLRENSKHSEVLIDLTEYCGQLVEAKCLTVNPQDNNCLAVGASGPFVRLYDIRMIHNHRKSMKQSPSAGVHTFCDRQKPLPDGAAQYYVAGHLPVKLPDYNNRLRVLVATYVTFSPNGTELLVNMGGEQVYLFDLTYKQRPYTFLLPRKCHSSGEVQNGKMSTNGVSNGVSNGLHLHSNGFRLPESRGHVSPQVELPPYLERVKQQANEAFACQQWTQAIQLYSKAVQRAPHNAMLYGNRAAAYMKRKWDGDHYDALRDCLKAISLNPCHLKAHFRLARCLFELKYVAEALECLDDFKGKFPEQAHSSACDALGRDITAALFSKNDGEEKKGPGGGAPVRLRSTSRKDSISEDEMVLRERSYDYQFRYCGHCNTTTDIKEANFFGSNAQYIVSGSDDGSFFIWEKETTNLVRVLQGDESIVNCLQPHPSYCFLATSGIDPVVRLWNPRPESEDLTGRVVEDMEGASQANQRRMNADPLEVMLLNMGYRITGLSSGGAGASDDEDSSEGQVQCRPS
For the molecule B2, the binding result in the assay with USP3-GST fusion (human) is given as “binds”.
